# Laboratory results published in PubChem BioAssay (EPA / NIEHS).
# The inconclusive results got no clear call from the source; some entries with a clear call stand among them for comparison. Potencies of inconclusive entries are doubtful fits and often do not repeat. The source made the active and inactive calls. How the source made its calls: active means hit-call score of the fitted dose curve at least 0.9, where 1 is the maximum; inconclusive means response in the unintended direction; inactive means score below 0.9.
# Assay: ACEA_ER_AUC_viability: ACEA Biosciences xCELLigence Real-Time Cell Analysis on Estrogen Receptor Agonism for Viability (AID 2283782);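 further: continuous compound exposure with impedance area under curve over 80 h; hit means loss of impedance signal meaning reduced cell growth or viability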
# Method in brief: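 T-47D; phenol red-free RPMI1640 + 10% CS-FBS; 8 conc., 1:4 serial, max 100 uM final, ≤0.5% DMSO; n = 2; continuous exposure; impedance monitored to 80 h post-dose; AUC vs DMSO.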
Structure (SMILES),AC50,outcome
CCC1(c2ccccc2)C(=O)NCNC1=O,inconclusive: 27.2 µM,–
Cc1cc(C(C)(C)C)c(O)c(C(C)(C)C)c1,active: 79.4 µM,–
Nc1ccc(O)c(N)c1,inconclusive: 1.93 µM,–
CO[Si](C)(CCC(F)(F)C(F)(F)C(F)(F)C(F)(F)C(F)(F)C(F)(F)F)OC,–,inactive
CCC1CCCCC1,active: 75.8 µM,–
CCOC(=O)C1CC(=O)C(=C(O)C2CC2)C(=O)C1 (configuration not stated),inconclusive: 0.509 µM,–
C=CCOC(=O)C(=C)C,–,inactive
